# Results taken from publication PMC9760430 (International Journal of Biological Sciences, 2023).
# Some peptides are written in HELM: one residue between dots, names in brackets for other building blocks, links after the first $.
# Assay: peptide synthesis
# Conditions: conjugation step, 230 and 735 nm
substance,measurement,value
"PEPTIDE1{C.F.E.T.L.R.G.D.L.R.I.L.S.I.L.R.[PraTrz].Q.N.L.[AzLysTrz].K.E.L.Q.D.[am]}|CHEM1{[IRDye800CW_suc]}$PEPTIDE1,PEPTIDE1,17:R3-21:R3|PEPTIDE1,CHEM1,1:R3-1:R1$$$V2.0",final LC-MS purity,>95%
